According to article PMC12501092:
No constants are given. Whether binding was seen depends on the method and setting. In cells and extracts the contact can be indirect. A yes stands for co-enrichment or nearness to the bait. Other partners may have been found.

The chains behind the UniProt entries cited, without tags or fusion partners.
UniProt Q14258: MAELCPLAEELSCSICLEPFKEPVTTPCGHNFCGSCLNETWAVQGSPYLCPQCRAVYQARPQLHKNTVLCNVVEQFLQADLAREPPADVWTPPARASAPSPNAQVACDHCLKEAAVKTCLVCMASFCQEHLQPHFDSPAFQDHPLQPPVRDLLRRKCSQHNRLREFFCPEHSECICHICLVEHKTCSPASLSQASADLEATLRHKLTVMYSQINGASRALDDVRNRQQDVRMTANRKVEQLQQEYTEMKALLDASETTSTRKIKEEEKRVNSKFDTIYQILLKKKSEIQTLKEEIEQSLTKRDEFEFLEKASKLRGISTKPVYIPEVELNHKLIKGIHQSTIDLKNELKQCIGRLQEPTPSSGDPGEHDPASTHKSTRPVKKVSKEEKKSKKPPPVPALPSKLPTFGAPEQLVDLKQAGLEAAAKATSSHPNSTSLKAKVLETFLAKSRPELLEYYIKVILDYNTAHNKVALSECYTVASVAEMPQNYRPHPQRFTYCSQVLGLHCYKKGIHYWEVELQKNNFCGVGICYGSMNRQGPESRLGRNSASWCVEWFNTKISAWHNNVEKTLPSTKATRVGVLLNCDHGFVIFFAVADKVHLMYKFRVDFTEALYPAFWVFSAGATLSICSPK
UniProt Q93009: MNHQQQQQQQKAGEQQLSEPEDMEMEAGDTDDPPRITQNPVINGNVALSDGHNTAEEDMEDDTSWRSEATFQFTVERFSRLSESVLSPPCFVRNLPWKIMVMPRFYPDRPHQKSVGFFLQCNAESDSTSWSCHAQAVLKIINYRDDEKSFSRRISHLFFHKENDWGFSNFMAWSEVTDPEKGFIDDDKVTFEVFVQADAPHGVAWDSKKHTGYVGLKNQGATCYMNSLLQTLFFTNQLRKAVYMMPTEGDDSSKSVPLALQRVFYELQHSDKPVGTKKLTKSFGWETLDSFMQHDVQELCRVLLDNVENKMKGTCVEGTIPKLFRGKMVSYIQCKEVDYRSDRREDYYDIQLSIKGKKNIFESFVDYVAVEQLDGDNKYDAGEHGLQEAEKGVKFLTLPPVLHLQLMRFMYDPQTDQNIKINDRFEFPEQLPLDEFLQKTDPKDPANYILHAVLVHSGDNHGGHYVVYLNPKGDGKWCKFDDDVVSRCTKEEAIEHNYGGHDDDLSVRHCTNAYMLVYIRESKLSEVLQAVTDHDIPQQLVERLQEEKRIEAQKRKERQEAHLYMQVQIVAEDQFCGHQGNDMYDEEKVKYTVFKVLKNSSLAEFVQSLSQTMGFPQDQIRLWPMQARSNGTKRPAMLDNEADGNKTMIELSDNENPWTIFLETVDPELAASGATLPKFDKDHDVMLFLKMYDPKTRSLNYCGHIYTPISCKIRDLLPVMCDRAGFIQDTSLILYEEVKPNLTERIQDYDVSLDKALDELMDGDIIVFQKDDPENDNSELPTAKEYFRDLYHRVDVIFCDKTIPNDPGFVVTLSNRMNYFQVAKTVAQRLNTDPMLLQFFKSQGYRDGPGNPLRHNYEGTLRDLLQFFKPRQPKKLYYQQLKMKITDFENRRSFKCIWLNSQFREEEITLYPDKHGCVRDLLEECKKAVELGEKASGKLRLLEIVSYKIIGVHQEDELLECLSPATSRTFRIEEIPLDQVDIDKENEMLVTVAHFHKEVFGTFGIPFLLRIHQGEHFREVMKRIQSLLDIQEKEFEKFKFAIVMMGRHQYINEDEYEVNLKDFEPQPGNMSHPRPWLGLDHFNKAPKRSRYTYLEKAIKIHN

Molecular target: TRIM25, bait of the mass spectrometry screen for deubiquitinases in A549 cells (UniProt Q14258)
Test: affinity purification with mass spectrometry; A549 cells; product after IP analysed by mass spectrometry (PTM BIO); hits crossed with Ubibrowser 2.0 predictions

| binding | Molecule |
| --- | --- |
| binds | USP7, endogenous (from UniProt Q93009 1-1102) (enzyme) |
| binds | USP15, endogenous (enzyme, UniProt Q9Y4E8 1-981) MAEGGAADLDTQRSDIATLLKTSLRKGDTWYLVDSRWFKQWKKYVGFDSWDKYQMGDQNVYPGPIDNSGLLKDGDAQSLKEHLIDELDYILLPTEGWNKLVSWYTLMEGQEPIARKVVEQGMFVKHCKVEVYLTELKLCENGNMNNVVTRRFSKADTIDTIEKEIRKIFSIPDEKETRLWNKYMSNTFEPLNKPDSTIQDAGLYQGQVLVIEQKNEDGTWPRGPSTPKSPGASNFSTLPKISPSSLSNNYNNMNNRNVKNSNYCLPSYTAYKNYDYSEPGRNNEQPGLCGLSNLGNTCFMNSAIQCLSNTPPLTEYFLNDKYQEELNFDNPLGMRGEIAKSYAELIKQMWSGKFSYVTPRAFKTQVGRFAPQFSGYQQQDCQELLAFLLDGLHEDLNRIRKKPYIQLKDADGRPDKVVAEEAWENHLKRNDSIIVDIFHGLFKSTLVCPECAKISVTFDPFCYLTLPLPMKKERTLEVYLVRMDPLTKPMQYKVVVPKIGNILDLCTALSALSGIPADKMIVTDIYNHRFHRIFAMDENLSSIMERDDIYVFEININRTEDTEHVIIPVCLREKFRHSSYTHHTGSSLFGQPFLMAVPRNNTEDKLYNLLLLRMCRYVKISTETEETEGSLHCCKDQNINGNGPNGIHEEGSPSEMETDEPDDESSQDQELPSENENSQSEDSVGGDNDSENGLCTEDTCKGQLTGHKKRLFTFQFNNLGNTDINYIKDDTRHIRFDDRQLRLDERSFLALDWDPDLKKRYFDENAAEDFEKHESVEYKPPKKPFVKLKDCIELFTTKEKLGAEDPWYCPNCKEHQQATKKLDLWSLPPVLVVHLKRFSYSRYMRDKLDTLVDFPINDLDMSEFLINPNAGPCRYNLIAVSNHYGGMGGGHYTAFAKNKDDGKWYYFDDSSVSTASEDQIVSKAAYVLFYQRQDTFSGTGFFPLDRETKGASAATGIPLESDEDSNDNDNDIENENCMHTN |
